PubChem BioAssay AID1508588 – Peter MacCallum Cancer Centre | 2020
In all, the deposit lists about 18,000 reagents; shown is an unselected part. 790 of them (4.4%) count as active. 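Calls rest on a combination of fold-change classes in drug and vehicle arms, not all shown here.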 No sequences are given here.

Test: 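Which gene losses make BRAF-mutant melanoma cells more responsive to vemurafenib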 (primary screen)
Cells: human WM266.4 melanoma cells (BRAF V600 mutant)
Reagents: siRNA pool against human genes, 40 nM
Duration: 96 h from transfection to read-out
Conditions: vemurafenib 300 nM (about IC25), added 48 h after transfection, for 48 h; comparison arm got DMSO vehicle only
Measurement: 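Ratios to non-targeting siRNA for cell gain, counted as DAPI nuclei after minus before drug and averaged over two replicates, and for absorbance-read medium lactate per cell; both binned into fold-change classes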
Reading the numbers: cell gain with vemurafenib: higher = more cell gain than with non-targeting siRNA; lactate per cell with vemurafenib: higher = more lactate made per cell
Call rule: 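a knock-down counts as enhancing when its fold-change classes with vehicle and with vemurafenib, taken together, show a stronger drug effect on cell gain or lactate per cell; exact class pairs not stated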
Meaning of the calls: active = enhances vemurafenib effect; inactive = no enhancement seen

How did the screen score ERH (GeneID 2079)?
cell gain with vemurafenib: 0.18; lactate per cell with vemurafenib: 0.2; activity call: inactive

For FGR (GeneID 2268), what does the deposit list?
cell gain with vemurafenib: 0.33; lactate per cell with vemurafenib: 1.4; activity call: inactive

With BRAP (GeneID 8315), how do the results read?
cell gain with vemurafenib: 0.71; lactate per cell with vemurafenib: 1.22; activity call: inactive

With SETD7 (GeneID 80854), what was measured?
cell gain with vemurafenib: 0.57; lactate per cell with vemurafenib: 0.93; activity call: inactive

With TDP2 (GeneID 51567), what does the deposit list?
cell gain with vemurafenib: 1.2; lactate per cell with vemurafenib: 0.82; activity call: inactive

For TSC22D3 (GeneID 1831), what does the deposit list?
cell gain with vemurafenib: 0.98; lactate per cell with vemurafenib: 0.82; activity call: inactive

What did the screen give for PPP6R3 (GeneID 55291)?
cell gain with vemurafenib: 0.89; lactate per cell with vemurafenib: 1.2; activity call: inactive

What did the screen give for SERP1 (GeneID 27230)?
cell gain with vemurafenib: 0.6; lactate per cell with vemurafenib: 1.68; activity call: inactive

What did the screen give for TAS2R16 (GeneID 50833)?
cell gain with vemurafenib: 0.5; lactate per cell with vemurafenib: 0.95; activity call: inactive

Which result is listed for DTWD1 (GeneID 56986)?
cell gain with vemurafenib: 0.45; lactate per cell with vemurafenib: 1.04; activity call: inactive

What is on record for ATG2A (GeneID 23130)?
cell gain with vemurafenib: 0.64; lactate per cell with vemurafenib: 0.66; activity call: inactive

With ATP5F1E (GeneID 514), how do the results read?
cell gain with vemurafenib: 0.51; lactate per cell with vemurafenib: 1.15; activity call: inactive

What is on record for PRICKLE1 (GeneID 144165)?
cell gain with vemurafenib: 1.05; lactate per cell with vemurafenib: 0.55; activity call: inactive

What is on record for SGSM1 (GeneID 129049)?
cell gain with vemurafenib: 0.98; lactate per cell with vemurafenib: 0.98; activity call: inactive

What did the screen give for POU6F1 (GeneID 5463)?
cell gain with vemurafenib: 0.9; lactate per cell with vemurafenib: 0.9; activity call: inactive

Which result is listed for ARMC10 (GeneID 83787)?
cell gain with vemurafenib: 0.48; lactate per cell with vemurafenib: 0.46; activity call: inactive

What is on record for PI4KA (GeneID 5297)?
cell gain with vemurafenib: 0.56; lactate per cell with vemurafenib: 1.29; activity call: inactive

Which result is listed for KIRREL2 (GeneID 84063)?
cell gain with vemurafenib: 0.54; lactate per cell with vemurafenib: 0.45; activity call: inactive

What did the screen give for JPT2 (GeneID 90861)?
cell gain with vemurafenib: 0.61; lactate per cell with vemurafenib: 0.92; activity call: inactive

For ATM (GeneID 472), what does the deposit list?
cell gain with vemurafenib: 0.73; lactate per cell with vemurafenib: 0.88; activity call: inactive

For ZDHHC7 (GeneID 55625), what was measured?
cell gain with vemurafenib: 1.06; lactate per cell with vemurafenib: 0.4; activity call: inactive

What is on record for DRD4 (GeneID 1815)?
cell gain with vemurafenib: 0.86; lactate per cell with vemurafenib: 0.44; activity call: inactive

With FIBIN (GeneID 387758), how do the results read?
cell gain with vemurafenib: 0.74; lactate per cell with vemurafenib: 1.25; activity call: inactive

What did the screen give for CNIH2 (GeneID 254263)?
cell gain with vemurafenib: 0.57; lactate per cell with vemurafenib: 2.1; activity call: inactive

What is on record for ORC6 (GeneID 23594)?
cell gain with vemurafenib: 0.92; lactate per cell with vemurafenib: 0.7; activity call: inactive

For SUFU (GeneID 51684), what does the deposit list?
cell gain with vemurafenib: 0.24; lactate per cell with vemurafenib: 1.68; activity call: inactive

What is on record for UNC50 (GeneID 25972)?
cell gain with vemurafenib: 0.84; lactate per cell with vemurafenib: 0.99; activity call: inactive

What did the screen give for DENND11 (GeneID 57189)?
cell gain with vemurafenib: 0.43; lactate per cell with vemurafenib: 1.1; activity call: inactive

What is on record for MAP3K15 (GeneID 389840)?
cell gain with vemurafenib: 0.63; lactate per cell with vemurafenib: 0.54; activity call: inactive

For SP2 (GeneID 6668), what was measured?
cell gain with vemurafenib: 0.49; lactate per cell with vemurafenib: 1.51; activity call: inactive

Which result is listed for TRIM32 (GeneID 22954)?
cell gain with vemurafenib: 1.06; lactate per cell with vemurafenib: 0.77; activity call: inactive

For COX6B2 (GeneID 125965), what was measured?
cell gain with vemurafenib: 0.75; lactate per cell with vemurafenib: 1.4; activity call: inactive

How did the screen score TPMT (GeneID 7172)?
cell gain with vemurafenib: 0.99; lactate per cell with vemurafenib: 0.44; activity call: inactive

What is on record for KBTBD12 (GeneID 166348)?
cell gain with vemurafenib: 0.81; lactate per cell with vemurafenib: 0.78; activity call: inactive

What is on record for ALG14 (GeneID 199857)?
cell gain with vemurafenib: 0.57; lactate per cell with vemurafenib: 0.39; activity call: inactive

With CARD11 (GeneID 84433), what does the deposit list?
cell gain with vemurafenib: 0.4; lactate per cell with vemurafenib: 0.19; activity call: active

What did the screen give for HADH (GeneID 3033)?
cell gain with vemurafenib: 0.74; lactate per cell with vemurafenib: 1.02; activity call: inactive

With ZNF654 (GeneID 55279), what was measured?
cell gain with vemurafenib: 0.39; lactate per cell with vemurafenib: 0.99; activity call: inactive

Which result is listed for ZBTB46 (GeneID 140685)?
cell gain with vemurafenib: 0.39; lactate per cell with vemurafenib: 0.41; activity call: inactive

Which result is listed for TARBP2 (GeneID 6895)?
cell gain with vemurafenib: 0.63; lactate per cell with vemurafenib: 0.51; activity call: inactive
